Assay results as given in patent US20150284453A1, “METHOD OF PROTECTING CARDIAC FUNCTION” (Declmmune Therapeutics, Inc., priority 2012, published 2015).
Some of these results come from one statement about several compounds together.

System: porcine model of myocardial infarction
Experiment: Cardiac function (LVEF, fractional shortening) by echocardiography, porcine model of myocardial infarction
Type: in vivo
Details: 21 d post-reperfusion vs baseline, 2D TTE; saline-treated 74.7%; listed as murine 21G6
Source text: FIG. 4A to 4C are graphs showing measurements of cardiac function by echocardiography. (A) Non-corrected % LVEF as measured by 2D TTE at 21d post-reperfusion compared to baseline using Quinones method (described below in the Examples section). (B) % LVEF as measured by 3D TTE at 21d post-reperfusion. (C) Fractional shortening as measured by 2D TTE at 21d post-reperfusion compared to baseline. # represents a p<0.05. n=3/group.
To determine the effect of N2 peptide and the 21G6 antibody treatment on cardiac function, echocardiography was employed. Echocardiography is widely accepted for evaluation of cardiac function and is utilized in emergency and operating rooms as well as intensive care departments in most hospitals. Ventricular function as assessed by echocardiography is accompanied by low intra-observer and inter-observer variability and assessment of left ventricular ejection fraction remains the standard of care in clinical practice. In addition, fractional shortening (FS), another measure of left ventricular function, was also calculated based on two-dimensional (2D) measurements at all time points measured at mid-ventricle and is defined as the difference between end-diastolic and end-systolic dimensions divided by end-diastolic dimension. […]
Prior to the occlusion procedure, a baseline TTE image was recorded. […]

B1: murine 21G6 mAb: murine anti-N2 monoclonal antibody from hybridoma ATCC Accession Number PTA-9393 (antibody, V domains shown)
VH: QVQLQQPGAELVKPGASVKLSCKASGYTFTSYYMYWVKQRPGQGLEWIGGINPSNGGTNFNEKFKSKATLTVDKSSSTAYMQLSSLTSEDSAVYYCTRWGYDREWFAYWGQGTLVTVSA
VL: DIVMTQAAPSVPVTPGESVSISCRSSKSLLHSNGNTYLYWFLQRPGQSPQVLIYRMSNLASGVPDRFSGSGSGTAFTLRISRVEAEDVGVYYCMQHLEYPFTFGSGTKLEIKR
recovery of cardiac function (LVEF at 21 d relative to baseline): over 98%
